Taken from: PubChem BioAssay AID1671195 (Yale University, 2021)
Here is an unselected part of about 22,000 deposited reagents. About 1,510 of all reagents (6.9%) count as active. 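Active includes knockdowns raising or lowering LDL uptake; positive z-scores mean more uptake, negative mean less.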

Test: 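Regulators of LDL receptor activity judged by labelled LDL uptake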 (primary screen)
Cell system: human Huh7 hepatoma cells
Reagent: siRNA pool against human genes, 18 nM
Duration: about 2 to 2.5 days of knockdown, then 8 h LDL uptake
Challenge: DiI-labelled LDL at 30 µg/ml for 8 h, in lipoprotein-deficient serum medium
Measurement: 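Per-cell DiI-LDL intensity by automated imaging; well means scaled to the plate median and given as a robust z-score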
Scale: robust z-score: higher = more LDL uptake after knockdown
Call rule: 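a gene counts as active if at least two replicate z-scores exceed ±2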

The opening 2 records, ahead of the listing:
gene | PubChem SID | robust z-score, replicate 1 | robust z-score, replicate 2 | robust z-score, replicate 3 | Outcome
HTR3A (5-hydroxytryptamine receptor 3A) | SID442901262 | -0.749 | -0.525 | -1.35 | inactive
LOC402253 (retired record) | SID442889800 | 0.293 | 0.799 | 0.431 | inactive

The list itself, repeating the preview:
gene | PubChem SID | robust z-score, replicate 1 | robust z-score, replicate 2 | robust z-score, replicate 3 | Outcome
HTR3A (5-hydroxytryptamine receptor 3A) | SID442901262 | -0.749 | -0.525 | -1.35 | inactive
LOC402253 (retired record) | SID442889800 | 0.293 | 0.799 | 0.431 | inactive
HES4 (hes family bHLH transcription factor 4) | SID442891919 | 0.306 | 0.44 | -0.0576 | inactive
LOC728510 | SID442889698 | 0.674 | 0.346 | 0.542 | inactive
CAPZA3 (capping actin protein of muscle Z-line subunit alpha 3) | SID442898932 | -0.61 | -0.578 | -0.479 | inactive
AMMECR1 (AMMECR nuclear protein 1) | SID442898463 | -1.42 | -1.04 | 0.96 | inactive
KERA (keratocan) | SID442890284 | 0.395 | 0.597 | 0.323 | inactive
USP45 (ubiquitin specific peptidase 45) | SID442893359 | -0.185 | 0.567 | -0.202 | inactive
MARCKSL1 (MARCKS like 1) | SID442891585 | 0.282 | 0.0364 | 0.484 | inactive
LECT2 (leukocyte cell derived chemotaxin 2) | SID442890940 | 0.901 | 0.161 | -0.00965 | inactive
KLF17 (KLF transcription factor 17) | SID442889227 | 0.773 | 0.493 | 0.512 | inactive
RPL32P3 (ribosomal protein L32 pseudogene 3) | SID442900430 | -0.768 | -1.09 | -0.421 | inactive
LOC400740 (retired record) | SID442902909 | -1.63 | -1.13 | -0.757 | inactive
MYD88 (MYD88 innate immune signal transduction adaptor) | SID442883409 | 3.98 | 3.56 | 1.44 | active
LOC389345 (retired record) | SID442884982 | 1.74 | 1.71 | 1.79 | inactive
CAMKK2 (calcium/calmodulin dependent protein kinase kinase 2) | SID442904744 | -2.02 | -1.78 | -1.79 | inactive
MAP1S (microtubule associated protein 1S) | SID442898158 | -0.585 | -1.45 | 0.636 | inactive
NXPE1 (neurexophilin and PC-esterase domain family member 1) | SID442903546 | -1.14 | -1.07 | -1.77 | inactive
FIS1 (fission, mitochondrial 1) | SID442899560 | -0.0801 | 0.633 | -2.46 | inactive
ETS2-AS1 (ETS2 antisense RNA 1) | SID442892012 | 0.0646 | 0.41 | 0.183 | inactive
MERTK (MER proto-oncogene, tyrosine kinase) | SID442885644 | 1.17 | 1.95 | 1.15 | inactive
KRTAP9-2 (keratin associated protein 9-2) | SID442889198 | 0.125 | 0.917 | 0.748 | inactive
TSN (translin) | SID442895412 | -0.029 | -0.248 | -0.222 | inactive
SLC25A12 | SID442896461 | -0.376 | -0.313 | -0.139 | inactive
IFI16 (interferon gamma inducible protein 16) | SID442885156 | 1.47 | 1.65 | 1.83 | inactive
ZNF200 (zinc finger protein 200) | SID442895120 | -0.173 | -0.153 | -0.0813 | inactive
EID2 (EP300 interacting inhibitor of differentiation 2) | SID442903298 | -1.36 | -1.24 | -1.2 | inactive
RRP15 (ribosomal RNA processing 15 homolog) | SID442892744 | 0.509 | 1.11 | -1.23 | inactive
CTF1 (cardiotrophin 1) | SID442897284 | -0.77 | 0.134 | -0.469 | inactive
TXNDC12 (thioredoxin domain containing 12) | SID442895394 | -0.164 | -0.599 | 0.268 | inactive
DGAT2 (diacylglycerol O-acyltransferase 2) | SID442887255 | 1.12 | 1.13 | 0.607 | inactive
LINC03006 (long independently transcribed non-coding RNA 3006) | SID442895981 | -0.152 | -0.535 | 0.00984 | inactive
AOAH (acyloxyacyl hydrolase) | SID442895057 | -0.0606 | -0.292 | -0.0343 | inactive
STIL (STIL centriolar assembly protein) | SID442897944 | 0.259 | -0.932 | -0.655 | inactive
KREMEN1 (kringle containing transmembrane protein 1) | SID442886810 | 1.54 | 0.995 | 0.638 | inactive
PRKCI (protein kinase C iota) | SID442895132 | 0.437 | -0.901 | 0.0515 | inactive
AFTPH (aftiphilin) | SID442896155 | -0.321 | -0.319 | -0.0905 | inactive
LY6G5C (lymphocyte antigen 6 family member G5C) | SID442898996 | -0.774 | -0.627 | -0.292 | inactive
SENP5 (SUMO specific peptidase 5) | SID442895356 | -0.3 | -0.572 | 0.385 | inactive
MAP9 (microtubule associated protein 9) | SID442895761 | 0.0508 | -0.666 | 0.00569 | inactive
ZNF823 (zinc finger protein 823) | SID442887973 | 0.721 | 0.775 | 0.919 | inactive
PLD1 (phospholipase D1) | SID442900801 | -1.07 | -0.612 | -0.743 | inactive
LOC442513 (retired record) | SID442889274 | 0.733 | 0.559 | 0.463 | inactive
ZNF28 (zinc finger protein 28) | SID442900026 | -0.483 | -0.995 | -0.627 | inactive
LINC00955 (long independently transcribed non-coding RNA 955) | SID442884709 | 1.71 | 2.2 | 1.88 | inactive
MBTPS2 (membrane bound transcription factor peptidase, site 2) | SID442902917 | -1.3 | -1.11 | -1.11 | inactive
